Structures can show the parent of a compound that is named as a salt. ± gives the standard deviation of the averaged measurements. This is one part of the list. Repeats are few or missing, and single values can be far off.

The subject of this assay is RAW 264.7. Description: cell viability (MTT) relative to vehicle control; higher = more viable cells. Particulars: stimulus: HMGB1 5 ug/ml, 18 h.
Where [1] appears, read: compound concentration: 1 ug/ml.

For the compound `Cc1cc2c(C(C)C)c(O)c(O)c(C=O)c2c(O)c1-c1c(C)cc2c(C(C)C)c(O)c(O)c(C=O)c2c1O` [Gossypol], the cell viability (compound concentration: 3 uM) is 88%.
On to `CCCN1CC[C@@H]2c3cc(O)ccc3CC[C@@H]21` (racemic) [cis(+/-)-8-OH-PBZI hydrobromide], for which the cell viability (compound concentration: 3 uM) worked out at 99.3%.
The same measure, in the same setting: under `O=c1[nH]c2ccccc2n1C1CCN(CCCC(c2ccc(F)cc2)c2ccc(F)cc2)CC1` stands 105%; under `O=c1[nH]c2ccccc2n1C1CCN(CCCC(c2ccc(F)cc2)c2ccc(F)cc2)CC1` [Pimozide], 106 ± 3.5%; under `CC(=O)[O][Hg][c]1ccccc1`, 9.91 ± 9.9%.
The same measure, in the same setting: under `CC(=O)NCCc1c[nH]c2ccccc12` [N-Acetyltryptamine] stands 113%.
For `c1cc2c(cc1[C@H]1OC[C@H]3[C@@H]1CO[C@H]3c1ccc3c(c1)OCO3)OCO2` [(-)-Asarinin], the cell viability under setting [1] stood at 83.1%.
`C[C@]12CC[C@@H](O)C[C@H]1CC[C@@H]1[C@@H]2CC[C@]2(C)C(=O)CC[C@@H]12` [3-alpha-Hydroxy-5-beta-androstan-17-one]: under “compound concentration: 3 uM”, the cell viability worked out at 114%.
Same read-out and setting: the figure for `C#CCN(C)[C@H](C)Cc1ccccc1` [Selegiline hydrochloride] is 86.2%.
For `C#CCN(C)[C@H](C)Cc1ccccc1`, under “compound concentration: 3 uM”, the cell viability is 97.4%.
The same measure, in the same setting: under `C#CCN(C)[C@H](C)Cc1ccccc1` [Benzeneethanamine, N,Alpha-dimethyl-N-2-propynyl-(R)- [CAS]] stands 97.2%.
For the compound `C=C[C@H]1CN2CC[C@H]1C[C@H]2c1[nH]c2ccccc2c1CCO` [Cinchonamine], the cell viability under setting [1] is 91.5%.
On to `C[C@@H]1O[C@@H](O[C@@H]2C=C3CC[C@@H]4[C@H](CC[C@]5(C)[C@@H](c6ccc(=O)oc6)CC[C@]45O)[C@@]3(C)CC2)[C@H](O)[C@H](O)[C@H]1O`, for which the cell viability (compound concentration: 3 uM) is 114%.
`C[C@@H]1O[C@@H](O[C@@H]2C=C3CC[C@@H]4[C@H](CC[C@]5(C)[C@@H](c6ccc(=O)oc6)CC[C@]45O)[C@@]3(C)CC2)[C@H](O)[C@H](O)[C@H]1O` [proscillaridin A]: the cell viability under setting [1] was determined as 104%.
Take `C[C@@H]1O[C@@H](O[C@@H]2C=C3CC[C@@H]4[C@H](CC[C@]5(C)[C@@H](c6ccc(=O)oc6)CC[C@]45O)[C@@]3(C)CC2)[C@H](O)[C@H](O)[C@H]1O` [Proscillaridin A]: the cell viability (compound concentration: 3 uM) turned out to be 88.6%.
For the compound `O=C(c1ccccc1)N1CC2CC(C1)c1cccc(=O)n1C2` (configuration not stated), the cell viability under setting [1] was 93.9%.
For `CN(C)C(=O)Oc1ccc[n+](C)c1`, the cell viability (compound concentration: 3 uM) came out at 109%.
On the same count and under the same terms, under `CN(C)C(=O)Oc1ccc[n+](C)c1` [Pyridostigmine bromide] stands 103%; under `NCCCNCCSP(=O)(O)O` [Amifostine], 106 ± 7.1%; under `NCCCNCCSP(=O)(O)O`, 106%.
As to `CC1OC(OC2/C=C/C=C/C=C/C=C/CC/C=C/C=C/[C@H](C)[C@@H](O)[C@@H](C)[C@H](C)OC(=O)CC(O)CC(O)CC(O)CCC(O)C(O)C[C@]3(O)CC(O)C(C(=O)O)C(C2)O3)C(O)C(N)C1O` (some centres not stated) [Nystatine], the cell viability (compound concentration: 3 uM) was 101%.
Consider `O=[N+]([O-])c1ccc(O)c([N+](=O)[O-])c1`, for which the cell viability (compound concentration: 3 uM) was 96.7%.
`CCn1cnc2c(Nc3cccc(Cl)c3)nc(N[C@@H]3CCCC[C@@H]3N)nc21`: the cell viability (compound concentration: 3 uM) came out at 97.8%.
Same read-out and setting: under `Clc1ccc(N2CCN(Cc3c[nH]c4ncccc34)CC2)cc1` [L-745,870 hydrochloride] stands 111%; under `O=S1(=O)N(CCN2CC=C(c3c[nH]c4cc(F)ccc34)CC2)c2cccc3c2N1CCC3`, 105%.
As to `CN1CC[C@]2(c3cccc(O)c3)Cc3nc4ccccc4cc3C[C@H]2C1`, the cell viability (compound concentration: 3 uM) came to 102%.
In the case of `NCCc1c[nH]c2ccc(C(N)=O)cc12` [5-Carboxamidotryptamine maleate], the cell viability (compound concentration: 3 uM) stood at 108%.
The same measure, in the same setting: under `NCCC(O)C(=O)NC1CC(N)C(OC2OC(CN)C(O)[C@H](O)[C@@H]2N)[C@H](OC2O[C@H](CO)[C@@H](O)[C@@H]2O)[C@@H]1O` (some centres not stated) [Butirosin disulfate salt] stands 99.9%.
For `CN[C@@H](Cc1c[nH]c2ccccc12)C(=O)O` [L-abrine], under setting [1], the cell viability was 92.2%.
`C=C1[C@@H](C)[C@H]2[C@H](Cc3ccccc3)NC(=O)[C@]23OC(=O)/C=C/C(=O)CCC[C@@H](C)C/C=C/[C@H]3[C@@H]1O`: the cell viability (compound concentration: 3 uM) was 84.4%.
On to `Nc1ccc([As](=O)(O)O)cc1`, for which, where the note is “compound concentration: 3 uM”, the cell viability amounted to 105%.
Consider `O=C1Nc2ccc(Cl)cc2C(c2ccccc2Cl)=NC1O` (configuration not stated) [Lorazepam], for which the cell viability (compound concentration: 3 uM) was found to be 94.8%.
Take `CCCCCCC1C(=O)OC(C)C(NC(=O)c2cccc(NC=O)c2O)C(=O)OC(C)C1OC(=O)CC(C)C` (configuration not stated) [Animicin A]: the cell viability under setting [1] worked out at 79.5%.
For the compound `O=C1CC[C@@]2(O)[C@H]3Cc4ccc(O)c5c4[C@@]2(CCN3CC2CC2)[C@H]1O5` [Naltrexone hydrochloride dihydrate], the cell viability (compound concentration: 3 uM) worked out at 97.8%.
Same read-out and setting: under `O=C1CC[C@@]2(O)[C@H]3Cc4ccc(O)c5c4[C@@]2(CCN3CC2CC2)[C@H]1O5` stands 101%; under `O=C1CC[C@@]2(O)[C@H]3Cc4ccc(O)c5c4[C@@]2(CCN3CC2CC2)[C@H]1O5` [Naltrexone hydrochloride], 112%; under `O=C1CC[C@@]2(O)[C@H]3Cc4ccc(O)c5c4[C@@]2(CCN3CC2CC2)[C@H]1O5` [Naltrexone], 97%.
`NC(=O)c1cc([N+](=O)[O-])cc([N+](=O)[O-])c1`: for the setting “compound concentration: 3 uM”, the cell viability was found to be 104 ± 11%.
As for `Cn1c(CCCC(=O)O)nc2cc(N(CCCl)CCCl)ccc21` [Bendamustine hydrochloride], for the setting “compound concentration: 3 uM”, the cell viability came out at 104%.
Still for that read-out and setting: under `CN1CCc2cc(O)cc3c2[C@H]1Cc1ccc(O)c(O)c1-3` [R(-)-2,10,11-Trihydroxyaporphine hybrobromide] stands 95.9%; under `CN[C@@H]1[C@@H](O)[C@@H](O[C@@H]2[C@@H](O)[C@H](O[C@H]3O[C@H](CN)CC[C@H]3N)[C@@H](N)C[C@H]2N)OC[C@]1(C)O.CN[C@@H]1[C@@H](O)[C@@H](O[C@@H]2[C@@H](O)[C@H](O[C@H]3O[C@H]([C@@H](C)N)CC[C@H]3N)[C@@H](N)C[C@H]2N)OC[C@]1(C)O.CN[C@@H]1[C@@H](O)[C@@H](O[C@@H]2[C@@H](O)[C@H](O[C@H]3O[C@H]([C@@H](C)NC)CC[C@H]3N)[C@@H](N)C[C@H]2N)OC[C@]1(C)O`, 102%.
The same measure, in the same setting: under `CN[C@@H]1[C@@H](O)[C@@H](O[C@@H]2[C@@H](O)[C@H](O[C@H]3O[C@H](CN)CC[C@H]3N)[C@@H](N)C[C@H]2N)OC[C@]1(C)O.CN[C@@H]1[C@@H](O)[C@@H](O[C@@H]2[C@@H](O)[C@H](O[C@H]3O[C@H]([C@@H](C)N)CC[C@H]3N)[C@@H](N)C[C@H]2N)OC[C@]1(C)O.CN[C@@H]1[C@@H](O)[C@@H](O[C@@H]2[C@@H](O)[C@H](O[C@H]3O[C@H]([C@@H](C)NC)CC[C@H]3N)[C@@H](N)C[C@H]2N)OC[C@]1(C)O` [Gentamicine sulfate] stands 100%.

As a reminder, the cell viability is a read-out of living cells in per cent, often relative to untreated cells.
